According to the supplement of paper PMC10849652:
The list shows a part of the results.

By UniProt entry, the sequences of proteins in these tests, tags left out. Where a name states a change or a piece, a line headed by the entry shows the natural chain unless it says otherwise.
UniProt Q9BRR3: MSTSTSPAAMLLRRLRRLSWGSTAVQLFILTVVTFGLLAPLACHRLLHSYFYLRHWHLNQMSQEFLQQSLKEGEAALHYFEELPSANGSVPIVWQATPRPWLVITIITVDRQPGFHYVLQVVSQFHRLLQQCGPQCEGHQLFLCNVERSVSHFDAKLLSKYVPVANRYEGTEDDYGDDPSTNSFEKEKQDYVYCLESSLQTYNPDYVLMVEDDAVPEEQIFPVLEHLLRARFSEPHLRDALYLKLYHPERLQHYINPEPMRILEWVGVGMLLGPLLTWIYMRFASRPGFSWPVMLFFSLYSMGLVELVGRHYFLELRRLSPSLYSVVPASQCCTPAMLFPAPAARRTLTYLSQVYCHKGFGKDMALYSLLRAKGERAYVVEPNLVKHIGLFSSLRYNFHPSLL
UniProt P21580: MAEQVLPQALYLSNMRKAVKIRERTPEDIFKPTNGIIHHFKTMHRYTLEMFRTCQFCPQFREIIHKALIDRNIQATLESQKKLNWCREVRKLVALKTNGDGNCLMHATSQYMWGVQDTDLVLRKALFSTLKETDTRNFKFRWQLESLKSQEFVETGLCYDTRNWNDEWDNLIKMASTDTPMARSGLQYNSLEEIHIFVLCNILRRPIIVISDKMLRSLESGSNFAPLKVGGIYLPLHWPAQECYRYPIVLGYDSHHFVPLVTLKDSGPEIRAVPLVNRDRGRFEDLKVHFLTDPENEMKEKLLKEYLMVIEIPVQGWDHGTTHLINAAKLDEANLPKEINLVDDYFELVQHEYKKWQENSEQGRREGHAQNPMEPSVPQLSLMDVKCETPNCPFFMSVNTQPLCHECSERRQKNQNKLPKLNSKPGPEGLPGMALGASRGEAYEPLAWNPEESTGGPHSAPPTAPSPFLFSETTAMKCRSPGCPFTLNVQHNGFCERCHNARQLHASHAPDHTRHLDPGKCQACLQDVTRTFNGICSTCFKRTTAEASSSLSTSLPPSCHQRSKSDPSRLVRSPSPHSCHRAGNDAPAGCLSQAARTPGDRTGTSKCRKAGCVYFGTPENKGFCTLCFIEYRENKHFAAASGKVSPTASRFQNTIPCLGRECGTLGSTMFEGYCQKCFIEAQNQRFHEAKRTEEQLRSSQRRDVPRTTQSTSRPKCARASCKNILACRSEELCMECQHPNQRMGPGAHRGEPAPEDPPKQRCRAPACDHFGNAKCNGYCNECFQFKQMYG
UniProt Q5T292: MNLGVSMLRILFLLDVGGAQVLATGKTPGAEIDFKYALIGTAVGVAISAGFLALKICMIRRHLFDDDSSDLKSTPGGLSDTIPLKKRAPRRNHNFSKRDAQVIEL
UniProt Q96SK2: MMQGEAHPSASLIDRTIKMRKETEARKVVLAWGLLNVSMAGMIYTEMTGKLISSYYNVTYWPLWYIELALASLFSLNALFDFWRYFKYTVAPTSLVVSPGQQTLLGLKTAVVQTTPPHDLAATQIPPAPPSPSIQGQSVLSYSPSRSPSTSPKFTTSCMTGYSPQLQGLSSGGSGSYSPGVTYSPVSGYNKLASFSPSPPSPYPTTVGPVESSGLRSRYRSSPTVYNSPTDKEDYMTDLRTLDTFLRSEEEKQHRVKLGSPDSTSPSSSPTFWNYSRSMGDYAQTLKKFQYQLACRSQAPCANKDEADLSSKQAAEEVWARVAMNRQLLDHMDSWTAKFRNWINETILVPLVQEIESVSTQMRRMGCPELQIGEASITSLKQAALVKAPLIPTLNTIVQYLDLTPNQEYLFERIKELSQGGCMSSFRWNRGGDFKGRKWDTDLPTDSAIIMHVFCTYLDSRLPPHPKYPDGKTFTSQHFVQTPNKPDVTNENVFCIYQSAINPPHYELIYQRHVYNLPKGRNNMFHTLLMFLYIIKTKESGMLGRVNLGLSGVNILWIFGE
UniProt Q9BSE2: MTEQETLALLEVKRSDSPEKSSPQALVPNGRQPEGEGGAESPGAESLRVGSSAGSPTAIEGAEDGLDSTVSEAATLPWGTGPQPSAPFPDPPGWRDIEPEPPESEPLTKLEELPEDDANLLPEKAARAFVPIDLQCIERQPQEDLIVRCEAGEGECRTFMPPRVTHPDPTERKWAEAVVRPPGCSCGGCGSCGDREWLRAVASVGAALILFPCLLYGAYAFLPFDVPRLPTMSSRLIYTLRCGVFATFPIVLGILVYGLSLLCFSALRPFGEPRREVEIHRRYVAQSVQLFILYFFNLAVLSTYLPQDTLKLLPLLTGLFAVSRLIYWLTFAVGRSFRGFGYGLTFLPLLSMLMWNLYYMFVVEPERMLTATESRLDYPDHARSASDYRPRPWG
UniProt Q8N2U0: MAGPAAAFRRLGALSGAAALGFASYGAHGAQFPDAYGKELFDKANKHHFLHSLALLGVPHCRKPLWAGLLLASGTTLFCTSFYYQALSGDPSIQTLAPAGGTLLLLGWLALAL
UniProt Q2T9K0: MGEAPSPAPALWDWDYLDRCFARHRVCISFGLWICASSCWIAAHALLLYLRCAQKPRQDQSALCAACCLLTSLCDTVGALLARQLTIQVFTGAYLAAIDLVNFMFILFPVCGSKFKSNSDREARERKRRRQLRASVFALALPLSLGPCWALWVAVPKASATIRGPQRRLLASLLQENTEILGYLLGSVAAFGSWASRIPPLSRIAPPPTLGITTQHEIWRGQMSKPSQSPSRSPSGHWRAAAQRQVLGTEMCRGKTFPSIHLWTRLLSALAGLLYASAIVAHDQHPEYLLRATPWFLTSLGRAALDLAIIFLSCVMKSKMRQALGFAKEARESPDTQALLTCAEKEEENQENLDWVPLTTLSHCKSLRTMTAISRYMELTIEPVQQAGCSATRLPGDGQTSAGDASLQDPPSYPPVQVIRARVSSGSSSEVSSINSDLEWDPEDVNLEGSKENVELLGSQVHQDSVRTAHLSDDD
UniProt Q9BXS4: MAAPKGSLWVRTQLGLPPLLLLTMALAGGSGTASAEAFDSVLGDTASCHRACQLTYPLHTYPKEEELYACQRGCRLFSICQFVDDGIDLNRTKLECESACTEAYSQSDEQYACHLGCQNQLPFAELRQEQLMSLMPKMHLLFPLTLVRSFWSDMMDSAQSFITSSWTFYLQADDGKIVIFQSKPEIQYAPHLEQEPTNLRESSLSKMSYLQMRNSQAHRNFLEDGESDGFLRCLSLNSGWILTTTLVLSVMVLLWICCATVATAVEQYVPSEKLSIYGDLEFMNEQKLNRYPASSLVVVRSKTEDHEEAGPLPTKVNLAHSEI
UniProt Q0VDI3: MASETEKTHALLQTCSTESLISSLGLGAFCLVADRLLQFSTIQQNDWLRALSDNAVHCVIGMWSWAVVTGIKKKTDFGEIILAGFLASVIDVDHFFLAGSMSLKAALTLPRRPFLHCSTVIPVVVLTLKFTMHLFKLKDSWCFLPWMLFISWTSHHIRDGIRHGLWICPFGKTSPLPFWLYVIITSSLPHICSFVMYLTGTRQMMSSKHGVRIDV
UniProt Q9NWH2: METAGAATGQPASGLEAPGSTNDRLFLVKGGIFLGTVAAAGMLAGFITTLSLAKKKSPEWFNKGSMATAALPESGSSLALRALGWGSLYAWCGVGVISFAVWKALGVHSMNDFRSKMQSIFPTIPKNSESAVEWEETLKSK
UniProt Q5T4D3: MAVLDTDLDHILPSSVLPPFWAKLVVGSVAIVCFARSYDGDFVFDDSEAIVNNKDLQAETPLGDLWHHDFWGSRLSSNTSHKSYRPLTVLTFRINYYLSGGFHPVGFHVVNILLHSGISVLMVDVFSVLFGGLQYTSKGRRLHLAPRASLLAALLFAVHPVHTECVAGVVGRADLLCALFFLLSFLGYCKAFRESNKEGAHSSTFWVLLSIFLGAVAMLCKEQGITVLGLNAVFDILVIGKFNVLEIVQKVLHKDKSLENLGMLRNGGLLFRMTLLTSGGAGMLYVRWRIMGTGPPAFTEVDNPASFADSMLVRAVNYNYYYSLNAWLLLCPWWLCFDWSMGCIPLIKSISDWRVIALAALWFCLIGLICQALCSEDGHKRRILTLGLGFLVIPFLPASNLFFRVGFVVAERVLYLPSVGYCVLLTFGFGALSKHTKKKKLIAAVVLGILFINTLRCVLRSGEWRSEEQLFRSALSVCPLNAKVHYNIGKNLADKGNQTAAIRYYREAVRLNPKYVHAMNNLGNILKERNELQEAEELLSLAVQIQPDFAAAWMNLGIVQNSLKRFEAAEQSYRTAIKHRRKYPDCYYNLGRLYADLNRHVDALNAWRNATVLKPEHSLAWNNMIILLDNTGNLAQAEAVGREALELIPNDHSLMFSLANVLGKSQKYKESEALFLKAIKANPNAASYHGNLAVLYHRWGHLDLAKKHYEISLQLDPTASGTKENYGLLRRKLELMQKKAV
UniProt Q9BTX3: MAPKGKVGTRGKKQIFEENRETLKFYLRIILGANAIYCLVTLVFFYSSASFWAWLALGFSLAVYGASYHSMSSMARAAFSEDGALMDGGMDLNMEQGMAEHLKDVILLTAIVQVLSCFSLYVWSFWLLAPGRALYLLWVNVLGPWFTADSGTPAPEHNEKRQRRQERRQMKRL
UniProt Q9Y2Y6: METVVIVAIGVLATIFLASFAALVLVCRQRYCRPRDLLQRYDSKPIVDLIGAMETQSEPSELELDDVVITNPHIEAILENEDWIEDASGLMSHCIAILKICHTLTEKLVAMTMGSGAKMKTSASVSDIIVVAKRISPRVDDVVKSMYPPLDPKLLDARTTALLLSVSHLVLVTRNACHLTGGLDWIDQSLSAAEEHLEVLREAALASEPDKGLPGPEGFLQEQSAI
UniProt Q9HCJ0: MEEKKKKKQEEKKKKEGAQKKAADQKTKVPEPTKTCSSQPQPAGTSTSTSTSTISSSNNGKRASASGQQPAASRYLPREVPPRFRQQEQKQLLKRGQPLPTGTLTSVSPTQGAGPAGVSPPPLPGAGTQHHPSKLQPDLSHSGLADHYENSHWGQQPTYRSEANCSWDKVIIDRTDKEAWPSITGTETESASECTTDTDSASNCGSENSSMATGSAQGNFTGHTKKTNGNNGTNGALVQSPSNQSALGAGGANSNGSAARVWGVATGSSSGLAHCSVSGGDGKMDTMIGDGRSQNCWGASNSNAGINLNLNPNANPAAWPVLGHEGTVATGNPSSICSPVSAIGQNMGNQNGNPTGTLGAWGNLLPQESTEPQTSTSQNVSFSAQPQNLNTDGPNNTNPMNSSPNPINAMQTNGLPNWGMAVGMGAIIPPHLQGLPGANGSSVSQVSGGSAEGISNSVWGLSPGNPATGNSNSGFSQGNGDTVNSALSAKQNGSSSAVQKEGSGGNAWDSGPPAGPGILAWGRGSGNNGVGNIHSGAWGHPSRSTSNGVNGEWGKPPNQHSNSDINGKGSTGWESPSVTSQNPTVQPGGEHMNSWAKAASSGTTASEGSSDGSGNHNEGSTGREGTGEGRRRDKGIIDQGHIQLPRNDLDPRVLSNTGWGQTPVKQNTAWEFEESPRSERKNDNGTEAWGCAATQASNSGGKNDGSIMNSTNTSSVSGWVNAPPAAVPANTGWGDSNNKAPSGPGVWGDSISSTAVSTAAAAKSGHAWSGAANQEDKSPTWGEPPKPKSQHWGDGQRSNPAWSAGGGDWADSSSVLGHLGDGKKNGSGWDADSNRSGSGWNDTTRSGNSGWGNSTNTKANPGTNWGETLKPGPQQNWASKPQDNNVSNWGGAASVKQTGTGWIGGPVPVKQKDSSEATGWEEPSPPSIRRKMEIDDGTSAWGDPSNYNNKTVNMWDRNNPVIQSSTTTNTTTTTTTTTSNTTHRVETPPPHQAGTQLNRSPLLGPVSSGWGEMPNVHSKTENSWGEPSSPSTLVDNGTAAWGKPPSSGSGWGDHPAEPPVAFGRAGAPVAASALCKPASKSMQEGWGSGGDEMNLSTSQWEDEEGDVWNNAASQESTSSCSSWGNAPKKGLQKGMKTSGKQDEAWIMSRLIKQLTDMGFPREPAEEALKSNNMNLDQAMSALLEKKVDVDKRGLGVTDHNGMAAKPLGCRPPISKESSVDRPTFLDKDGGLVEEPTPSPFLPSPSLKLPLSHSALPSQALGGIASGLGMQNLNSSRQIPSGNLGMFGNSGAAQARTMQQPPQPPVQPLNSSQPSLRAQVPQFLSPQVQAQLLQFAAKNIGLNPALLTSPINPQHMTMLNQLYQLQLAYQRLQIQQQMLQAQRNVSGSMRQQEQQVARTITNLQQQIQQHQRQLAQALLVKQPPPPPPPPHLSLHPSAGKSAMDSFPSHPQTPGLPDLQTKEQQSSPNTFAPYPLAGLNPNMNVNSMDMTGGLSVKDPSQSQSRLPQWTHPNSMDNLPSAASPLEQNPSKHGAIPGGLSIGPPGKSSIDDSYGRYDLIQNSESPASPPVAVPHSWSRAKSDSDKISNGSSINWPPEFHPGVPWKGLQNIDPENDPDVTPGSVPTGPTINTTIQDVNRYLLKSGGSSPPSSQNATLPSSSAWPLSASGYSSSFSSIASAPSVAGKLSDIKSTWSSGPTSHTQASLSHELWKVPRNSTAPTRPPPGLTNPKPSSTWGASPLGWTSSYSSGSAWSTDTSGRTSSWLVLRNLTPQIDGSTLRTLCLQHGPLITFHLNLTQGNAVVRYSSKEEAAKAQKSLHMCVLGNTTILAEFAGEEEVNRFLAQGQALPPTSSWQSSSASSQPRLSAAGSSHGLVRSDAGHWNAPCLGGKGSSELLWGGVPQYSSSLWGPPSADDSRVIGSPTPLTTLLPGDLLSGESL

Columns and labels:
Assay in all cases: log2 fold change, soluble protein after heating vs DMSO (PISA); higher = thermal stabilisation; K562 lysate, 10 uM; active = over 0.2 and 3.5 SD of the protein, either way, in both replicates (recomputed)
erlotinib = compound: C#Cc1cccc(Nc2ncnc3cc(OCCOC)c(OCCOC)cc23)c1 [erlotinib]
In short: (§1)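 K562 pellets were dounce-homogenised in PBS pH 7.4 containing 1 mM MgCl2, and the crude extract, at 1 mg/mL protein, was exposed to 10 μM compound for 30 min. Aliquots were heated for 3 min across 48°C-58°C, pooled, brought to 0.5% NP-40 at 4°C and spun at 21,000xg for 90 min, with the supernatant taken as soluble protein. TMTpro 16plex LC-MS/MS with equalised channel sums quantified that protein. Values are log-two fold changes in thermal stability relative to solvent controls, taken from duplicates.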

[1] = compound: C1=CC(=CC=C1C2=NC3=C(N2)C=C(C=C3)C(=O)N)OC4=CC=C(C=C4)Cl
In short: as §1

[2] = compound: C1=CC2=NC=CN=C2C=C1/C=C/3\C(=O)NC(=O)S3
In short: as §1

[3] = compound: C1=CC=C(C=C1)C2=NC(=C(N2)C3=CC=NC=C3)C4=CC(=C(C=C4)Cl)O
In short: as §1

IRAK-1-4 Inhibitor I = compound: C1COCCN1CCN2C3=CC=CC=C3N=C2NC(=O)C4=CC(=CC=C4)[N+](=O)[O-] [IRAK-1-4 Inhibitor I]
In short: as §1

ibrutinib = compound: C=CC(=O)N1CCC[C@@H](n2nc(-c3ccc(Oc4ccccc4)cc3)c3c(N)ncnc32)C1 [ibrutinib]
In short: as §1

ralimetinib = compound: CC(C)(C)Cn1c(N)nc2ccc(-c3[nH]c(C(C)(C)C)nc3-c3ccc(F)cc3)nc21 [ralimetinib]
In short: as §1

[4] = compound: CC(C)(O)CC(=O)NCCn1ccc2ncnc(Nc3ccc(Oc4cccc(C(F)(F)F)c4)c(Cl)c3)c21
In short: as §1

[5] = compound: CC(C)C1=C2N=C(C=C(N2N=C1)NCC3=CC=CC=C3)NCCCCCCN
In short: as §1

[6] = compound: CC1=C(C=C(C=C1)NC(=O)C2=CC(=CC=C2)N(C)C)NC(=O)C3=CC=C(C=C3)O
In short: as §1

[7] = compound: C1CCN(C1)C(=O)NC2=CC=CC(=C2)NC3=NC=C(C(=N3)NCCC4=CN=CN4)Br
In short: as §1

[8] = compound: C1CN(CCC1(CC2=CC=C(C=C2)Cl)N)C3=NC=NC4=C3C=CN4
In short: as §1

[9] = compound: CC(=O)c1cnc2ccc(-c3cc(Cl)c(O)c(Cl)c3)nc2c1N[C@H]1CC[C@H](CN(C)C)CC1
In short: as §1

[10] = compound: CC1=C(C(CC(=O)N1)C2=CC=C(C=C2)C(F)(F)F)C(=O)NC3=C(C=C4C(=C3)C=NN4)F
In short: as §1

[11] = compound: CC1=C(C2=C(C=C1)C(=O)C3=CC=CC=C3N2CCCN)C
In short: as §1

[12] = compound: CC1=C(C=C(C=C1)NC(=O)C2=CC(=CC=C2)C(C)(C)C#N)NC3=CC4=C(C=C3)N=CN(C4=O)C
In short: as §1

[13] = compound: CC1=CC=C(C=C1)SC2=C3C=C(SC3=CN=C2)C(=O)N
In short: as §1

[14] = compound: C/C(=N\NC(=O)C1=CC(=CC=C1)S(=O)(=O)N2CCOCC2)/C3=C(C=CC(=C3)Cl)O
In short: as §1

[15] = compound: C1=CC2=C(C=CC(=C2)/C=C\3/C(=O)NC(=NCC4=CC=CS4)S3)N=C1
In short: as §1

[16] = compound: C1=CC=C2C(=C1)C3=NNC4=CC=CC(=C43)C2=O
In short: as §1

Measured: log2 fold change

TMEM246 (UniProt Q9BRR3)
inactive: erlotinib 0.147 | [1] -0.005 | [2] -0.154 | [3] 0.052 | IRAK-1-4 Inhibitor I 0.072 | ibrutinib 0.077 | ralimetinib 0.062 | [4] -0.261 | [5] 0.077 | [6] 0.042

TNFAIP3 (UniProt P21580)
inactive: erlotinib 0.018 | [1] 0.024 | [2] 0.03 | [3] -0.049 | [7] -0.296 | [8] 0.09 | IRAK-1-4 Inhibitor I 0.047 | ibrutinib -0.123 | [9] -0.1 | ralimetinib -0.056 | [4] 0.005 | [5] -0.045 | [10] 0.003 | [11] 0.016 | [12] -0.035 | [6] 0.068 | [13] 0.053

TPRA1 (UniProt Q86W33)
inactive: erlotinib 0.115 | [1] -0.01 | [3] 0.028 | IRAK-1-4 Inhibitor I -0.052 | [9] -0.104 | ralimetinib -0.071 | [4] 0.014 | [5] 0.009 | [11] -0.019 | [12] 0.021 | [6] -0.029 | [13] -0.183

TNNC1 (UniProt P63316)
inactive: [2] 0.572 | ibrutinib 0.402

TMEM273 isoform 2 (UniProt Q5T292)
inactive: erlotinib 0.024 | [1] 0.077 | [2] -0.144 | [3] -0.112 | IRAK-1-4 Inhibitor I 0.033 | ibrutinib 0.1 | ralimetinib 0.084 | [4] 0.035 | [5] -0.056 | [12] 0.165 | [6] 0.058

TMEM209 (UniProt Q96SK2)
inactive: erlotinib -0.021 | [1] 0.009 | [2] 0.288 | [3] -0.094 | IRAK-1-4 Inhibitor I 0.028 | ibrutinib 0.141 | [9] 0.057 | ralimetinib 0.057 | [4] 0.043 | [5] -0.384 | [11] 0.073 | [12] 0.028 | [6] 0.035 | [13] -0.049

TMEM79 (UniProt Q9BSE2)
inactive: [10] -0.084

TNS1 (UniProt Q9HBL0)
inactive: [2] 0.054 | [7] 0.186 | [8] -0.031 | ibrutinib -0.121 | [10] 0.061 | [12] -0.053

TMEM256 (UniProt Q8N2U0)
inactive: [14] 0.256 | [15] -0.128 | [16] 0.156 | [7] 0.264 | [8] -0.017 | [9] -0.059 | [11] 0.141 | [13] 0.084

Two consecutive records already listed, quoted:
TPRA1 (UniProt Q86W33)
inactive: erlotinib 0.115 | [1] -0.01 | [3] 0.028 | IRAK-1-4 Inhibitor I -0.052 | [9] -0.104 | ralimetinib -0.071 | [4] 0.014 | [5] 0.009 | [11] -0.019 | [12] 0.021 | [6] -0.029 | [13] -0.183

TNNC1 (UniProt P63316)
inactive: [2] 0.572 | ibrutinib 0.402

Following part

TMEM44 (UniProt Q2T9K0)
inactive: [2] 0.019 | [7] 0.055 | [8] 0.064 | ibrutinib 0.088 | [9] -0.059 | [11] 0.102 | [13] -0.104

TMEM59 (UniProt Q9BXS4)
inactive: [3] -0.075 | IRAK-1-4 Inhibitor I 0.049 | ralimetinib 0.05 | [4] -0.109 | [6] -0.137

TMEM267 (UniProt Q0VDI3)
inactive: erlotinib 0.08 | [1] 0.046 | [2] -0.042 | [3] -0.088 | IRAK-1-4 Inhibitor I -0.013 | ibrutinib 0.071 | ralimetinib 0.066 | [4] 0.043 | [5] -0.028 | [10] -0.099 | [12] 0.217 | [6] 0.064

TMEM242 (UniProt Q9NWH2)
inactive: [14] -0.094 | [15] -0.102 | [2] -0.022 | [3] -0.025 | [16] 0.188 | [7] -0.036 | [8] 0.001 | IRAK-1-4 Inhibitor I -0.084 | ibrutinib -0.233 | ralimetinib -0.013 | [4] -0.103 | [10] 0.059 | [11] -0.227 | [12] -0.053 | [6] 0.108

TMTC4 isoform 3 (UniProt Q5T4D3)
inactive: [3] 0.09 | [7] 0.101 | [8] -0.045 | IRAK-1-4 Inhibitor I -0.076 | ralimetinib 0.208 | [4] -0.078 | [11] -0.258 | [6] -0.401

TPT1 (UniProt E9PJF7)
inactive: erlotinib 0.177 | [1] 0.091 | [2] -0.702 | ibrutinib 0.23 | [9] 0.019 | [5] 0.018 | [12] 0.115 | [13] 0.001

TMEM208 (UniProt Q9BTX3)
inactive: erlotinib 0.03 | [1] -0.216 | [2] 0.044 | [3] -0.132 | [7] -0.024 | [8] -0.076 | IRAK-1-4 Inhibitor I 0.018 | ibrutinib 0.019 | [9] 0.014 | ralimetinib 0.073 | [4] -0.127 | [5] -0.029 | [10] 0.042 | [11] -0.194 | [12] 0.088 | [6] 0.042 | [13] -0.45

TMEM98 (UniProt Q9Y2Y6)
inactive: [3] 0.111 | IRAK-1-4 Inhibitor I -0.063 | ralimetinib 0.079 | [4] 0.043 | [10] -0.017 | [6] -0.048

TNIK isoform 5 (UniProt Q9UKE5)
inactive: [2] 0.008 | [3] 0.134 | IRAK-1-4 Inhibitor I -0.038 | ibrutinib 0.07 | [9] 0.345 | ralimetinib 0.016 | [4] -0.026 | [11] -0.091 | [12] 0.276 | [6] -0.004 | [13] -0.136

TNRC6C isoform 2 (UniProt Q9HCJ0)
inactive: erlotinib -0.016 | [1] -0.011 | [2] -0.008 | [3] -0.024 | [7] -0.197 | [8] 0.225 | IRAK-1-4 Inhibitor I -0.011 | ibrutinib 0.064 | [9] 0.013 | ralimetinib 0.044 | [4] 0.01 | [5] -0.025 | [11] -0.172 | [6] -0.005 | [13] 0.018
